# Cell number after 72 h of treatment

Values as published with doi:10.1371/journal.pone.0140310, rounded.

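Human melanoma cells were exposed to two drugs together for 72 h in 1,536-well plates and read by automated microscopy after fixing and staining. Each value is the count of nuclei relative to DMSO-treated wells, in %, so that 100 equals the control. Concentrations were fixed for each drug; these are the lower of two levels, a fifth of the higher. No replicate spread is given; individual values may be noisy.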 Only some of the drugs and lines screened are listed, without regard to their results.

All values are for the listed drug together with selumetinib (0.015 µM): Cn1cnc2c(F)c(Nc3ccc(Br)cc3Cl)c(C(=O)NOCCO)cc21

Drug key:
PF-04217903, 1 µM: OCCn1cc(-c2cnc3nnn(Cc4ccc5ncccc5c4)c3n2)cn1
CX-4945, 0.4 µM: O=C(O)c1ccc2c(c1)nc(Nc1cccc(Cl)c1)c1ccncc12
indole-3-carbinol, 0.8 µM: OCc1c[nH]c2ccccc12
vincristine, 0.0001 µM: CC[C@]1(O)C[C@H]2CN(CCc3c([nH]c4ccccc34)[C@@](C(=O)OC)(c3cc4c(cc3OC)N(C=O)[C@H]3[C@@](O)(C(=O)OC)[C@H](OC(C)=O)[C@]5(CC)C=CCN6CC[C@]43[C@@H]65)C2)C1
stibogluconate, 2 µM: O=C(O)[C@@H]1[O][Sb](=[O])([O][Sb]2(=[O])[O][C@H]([C@H](O)CO)[C@H](O)[C@H](C(=O)O)[O]2)[O][C@H]([C@H](O)CO)[C@@H]1O (stereo partly shown)
MK-1775, 0.02 µM: C=CCn1c(=O)c2cnc(Nc3ccc(N4CCN(C)CC4)cc3)nc2n1-c1cccc(C(C)(C)O)n1
perifosine, 0.4 µM: CCCCCCCCCCCCCCCCCCOP(=O)([O-])OC1CC[N+](C)(C)CC1
lenalidomide, 1 µM: Nc1cccc2c1CN(C1CCC(=O)NC1=O)C2=O (stereo not shown)
PLX4720, 0.08 µM: CCCS(=O)(=O)Nc1ccc(F)c(C(=O)c2c[nH]c3ncc(Cl)cc23)c1F
SNS-314, 0.0008 µM: O=C(Nc1cccc(Cl)c1)Nc1ncc(CCNc2ncnc3ccsc23)s1
lapatinib, 0.8 µM: CS(=O)(=O)CCNCc1ccc(-c2ccc3ncnc(Nc4ccc(OCc5cccc(F)c5)c(Cl)c4)c3c2)o1
ABT-263, 0.4 µM: CC1(C)CCC(c2ccc(Cl)cc2)=C(CN2CCN(c3ccc(C(=O)NS(=O)(=O)c4ccc(N[C@H](CCN5CCOCC5)CSc5ccccc5)c(S(=O)(=O)C(F)(F)F)c4)cc3)CC2)C1
cediranib, 0.4 µM: COc1cc2c(Oc3ccc4[nH]c(C)cc4c3F)ncnc2cc1OCCCN1CCCC1
VX-702, 0.4 µM: NC(=O)c1ccc(N(C(N)=O)c2c(F)cccc2F)nc1-c1ccc(F)cc1F
midostaurin, 0.08 µM: CO[C@@H]1[C@H](N(C)C(=O)c2ccccc2)C[C@H]2O[C@]1(C)n1c3ccccc3c3c4c(c5c6ccccc6n2c5c31)C(=O)NC4
AZD7762, 0.02 µM: NC(=O)Nc1cc(-c2cccc(F)c2)sc1C(=O)N[C@H]1CCCNC1
ruxolitinib, 1 µM: N#CC[C@H](C1CCCC1)n1cc(-c2ncnc3[nH]ccc23)cn1
GSK650394, 0.16 µM: O=C(O)c1ccc(-c2c[nH]c3ncc(-c4ccccc4)cc23)cc1C1CCCC1
GW2580, 1 µM: COc1ccc(COc2ccc(Cc3cnc(N)nc3N)cc2OC)cc1
CP-690550, 1 µM: C[C@@H]1CCN(C(=O)CC#N)C[C@@H]1N(C)c1ncnc2[nH]ccc12
dovitinib, 0.1 µM: CN1CCN(c2ccc3nc(-c4c(N)c5c(F)cccc5[nH]c4=O)[nH]c3c2)CC1
ZM336372, 2 µM: Cc1ccc(NC(=O)c2cccc(N(C)C)c2)cc1NC(=O)c1ccc(O)cc1
SNS-032, 0.01 µM: CC(C)(C)c1cnc(CSc2cnc(NC(=O)C3CCNCC3)s2)o1
tozasertib, 0.006 µM: Cc1cc(Nc2cc(N3CCN(C)CC3)nc(Sc3ccc(NC(=O)C4CC4)cc3)n2)n[nH]1
KU-0063794, 0.02 µM: COc1ccc(-c2ccc3c(N4CCOCC4)nc(N4C[C@@H](C)O[C@@H](C)C4)nc3n2)cc1CO
crizotinib, 0.2 µM: C[C@@H](Oc1cc(-c2cnn(C3CCNCC3)c2)cnc1N)c1c(Cl)ccc(F)c1Cl
STA-4783, 0.006 µM: CN(NC(=O)CC(=O)NN(C)C(=S)c1ccccc1)C(=S)c1ccccc1
BI-78D3, 0.2 µM: O=c1[nH]nc(Sc2ncc([N+](=O)[O-])s2)n1-c1ccc2c(c1)OCCO2
BMS-536924, 0.2 µM: Cc1cc(N2CCOCC2)cc2[nH]c(-c3c(NC[C@@H](O)c4cccc(Cl)c4)cc[nH]c3=O)nc12

Second drug,MEL-HO,COLO 829,IPC-298
lapatinib,92.0,133,67.3
indole-3-carbinol,84.1,117,64.9
vincristine,111,96.0,80.6
crizotinib,86.5,109,69.1
VX-702,90.2,105,62.3
GSK650394,91.9,132,63.8
BMS-536924,90.1,105,66.2
perifosine,93.0,113,88.1
ruxolitinib,99.1,154,91.3
PF-04217903,96.3,102,82.2
AZD7762,108,161,62.4
dovitinib,84.1,125,61.4
stibogluconate,88.4,111,62.0
lenalidomide,88.9,133,66.4
SNS-032,105,116,76.9
ZM336372,113,103,104
CP-690550,89.4,128,63.5
midostaurin,88.1,90.9,78.4
MK-1775,93.6,108,69.5
tozasertib,91.7,99.2,83.1
cediranib,101,93.0,67.0
SNS-314,100,122,76.0
ABT-263,67.4,108,79.2
GW2580,88.4,117,80.9
CX-4945,74.3,123,61.4
BI-78D3,88.2,145,79.1
PLX4720,98.6,88.1,82.1
KU-0063794,93.6,80.2,73.4
STA-4783,85.2,65.4,69.0

The last 3 entries again:

Second drug	MEL-HO	COLO 829	IPC-298
PLX4720	98.6	88.1	82.1
KU-0063794	93.6	80.2	73.4
STA-4783	85.2	65.4	69.0